Data as given in article PMC7160111.
Results are given in words; binding and its absence hold for the method and conditions named. For some assays here: In cells and extracts the contact can be indirect. Some results given as binding are weak or reduced against the parent protein; the word gives no strength.

By UniProt entry, the sequences of proteins in these tests, tags left out. Where a name states a change or a piece, a line headed by the entry shows the natural chain unless it says otherwise.
UniProt P38634: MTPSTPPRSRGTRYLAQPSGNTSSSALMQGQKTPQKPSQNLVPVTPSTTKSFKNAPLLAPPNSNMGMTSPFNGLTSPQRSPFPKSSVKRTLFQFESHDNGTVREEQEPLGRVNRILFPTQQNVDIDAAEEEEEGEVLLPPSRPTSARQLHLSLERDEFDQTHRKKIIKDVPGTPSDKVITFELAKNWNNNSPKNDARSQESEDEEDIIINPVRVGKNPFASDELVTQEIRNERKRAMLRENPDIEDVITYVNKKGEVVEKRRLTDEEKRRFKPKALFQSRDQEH
UniProt P00546: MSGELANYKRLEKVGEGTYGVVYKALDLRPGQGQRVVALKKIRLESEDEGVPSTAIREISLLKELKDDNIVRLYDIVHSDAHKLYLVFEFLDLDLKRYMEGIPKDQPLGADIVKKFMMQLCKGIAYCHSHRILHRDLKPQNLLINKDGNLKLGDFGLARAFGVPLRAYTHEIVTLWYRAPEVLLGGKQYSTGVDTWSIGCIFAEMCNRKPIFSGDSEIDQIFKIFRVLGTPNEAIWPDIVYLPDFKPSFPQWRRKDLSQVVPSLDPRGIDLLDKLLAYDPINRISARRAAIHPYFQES

T1: Clb5–TAP (S. cerevisiae) (UniProt P30283)
T1 sequence: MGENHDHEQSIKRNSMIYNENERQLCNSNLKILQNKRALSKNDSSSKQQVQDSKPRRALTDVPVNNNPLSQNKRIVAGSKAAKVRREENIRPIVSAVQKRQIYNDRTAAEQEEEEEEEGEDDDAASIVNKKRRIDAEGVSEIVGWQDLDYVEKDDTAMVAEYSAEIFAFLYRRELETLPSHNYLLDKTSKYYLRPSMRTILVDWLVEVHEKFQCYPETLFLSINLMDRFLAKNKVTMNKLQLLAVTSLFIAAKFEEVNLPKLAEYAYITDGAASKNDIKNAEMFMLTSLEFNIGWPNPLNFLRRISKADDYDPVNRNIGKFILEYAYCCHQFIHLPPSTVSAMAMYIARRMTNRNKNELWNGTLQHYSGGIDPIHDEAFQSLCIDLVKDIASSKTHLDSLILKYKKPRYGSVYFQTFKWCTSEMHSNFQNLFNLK


Key:
Clb5–TAP (S. cerevisiae) = target: T1, Clb5–TAP (S. cerevisiae); assay: tandem affinity purification; cyclins copurified as stoichiometric complexes with active Cdk1 from a Δsic1 yeast strain
[1] = target: T173A–Sic1–6HA (S. cerevisiae) (UniProt P38634); assay: co-IP; Clb5–TAP overexpressed (GAL1 promoter, 2-μm plasmid) in strains with endogenously expressed Sic1–6HA or T173A–Sic1–6HA; purified by the TAP tag from 5–7 g of cell pellet; final eluate blotted with anti-HA and anti-Cks1

binding (Clb5–TAP (S. cerevisiae)) | binding [1] | Molecule
binds |  | Cdk1 (from UniProt P00546 1-298) (enzyme)
 | no binding | Cks1 (protein, UniProt P20486 1-150) MYHHYHAFQGRKLTDQERARVLEFQDSIHYSPRYSDDNYEYRHVMLPKAMLKVIPSDYFNSEVGTLRILTEDEWRGLGITQSLGWEHYECHAPEPHILLFKRPLNYEAELRAATAAAQQQQQQQQQQQQQQQQHQTQSISNDMQVPPQIS
